Compound in this assay: Cc1cc(ccc1-c1ccccc1)C(=O)N1CCCN(CC1)C(=O)CCl [compound 10]
In words: probe-labelled cysteine peptide fold change vs DMSO (competition) (log2 fold change); higher = less target engagement (more negative = stronger competition). The note with it: THP-1, incubation time: 4 h.

Chains of the proteins cited; added tags and fusions are not shown. Lines headed by an entry give the natural chain unless they say otherwise; changes in a name come on top.
UniProt P08311: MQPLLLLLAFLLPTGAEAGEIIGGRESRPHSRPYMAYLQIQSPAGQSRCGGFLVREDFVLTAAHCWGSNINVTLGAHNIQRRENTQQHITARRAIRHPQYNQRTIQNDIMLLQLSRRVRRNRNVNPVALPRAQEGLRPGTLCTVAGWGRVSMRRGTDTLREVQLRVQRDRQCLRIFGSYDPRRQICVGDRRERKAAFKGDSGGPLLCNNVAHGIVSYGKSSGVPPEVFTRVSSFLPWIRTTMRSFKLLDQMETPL
UniProt Q9UK59: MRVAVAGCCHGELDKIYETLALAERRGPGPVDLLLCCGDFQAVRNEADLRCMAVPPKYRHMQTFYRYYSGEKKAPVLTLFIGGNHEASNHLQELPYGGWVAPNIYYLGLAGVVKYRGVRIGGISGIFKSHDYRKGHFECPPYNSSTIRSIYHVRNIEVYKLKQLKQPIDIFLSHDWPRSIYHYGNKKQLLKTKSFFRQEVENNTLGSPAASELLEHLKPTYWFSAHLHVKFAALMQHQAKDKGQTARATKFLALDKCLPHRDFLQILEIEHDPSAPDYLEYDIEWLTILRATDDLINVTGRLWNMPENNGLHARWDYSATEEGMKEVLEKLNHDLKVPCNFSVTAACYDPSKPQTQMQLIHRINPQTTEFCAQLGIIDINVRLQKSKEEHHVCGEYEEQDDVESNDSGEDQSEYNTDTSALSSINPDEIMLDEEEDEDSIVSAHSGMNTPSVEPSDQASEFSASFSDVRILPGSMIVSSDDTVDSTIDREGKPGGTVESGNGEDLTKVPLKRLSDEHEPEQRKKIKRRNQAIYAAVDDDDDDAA
UniProt Q9P0U4, whole entry, looked up: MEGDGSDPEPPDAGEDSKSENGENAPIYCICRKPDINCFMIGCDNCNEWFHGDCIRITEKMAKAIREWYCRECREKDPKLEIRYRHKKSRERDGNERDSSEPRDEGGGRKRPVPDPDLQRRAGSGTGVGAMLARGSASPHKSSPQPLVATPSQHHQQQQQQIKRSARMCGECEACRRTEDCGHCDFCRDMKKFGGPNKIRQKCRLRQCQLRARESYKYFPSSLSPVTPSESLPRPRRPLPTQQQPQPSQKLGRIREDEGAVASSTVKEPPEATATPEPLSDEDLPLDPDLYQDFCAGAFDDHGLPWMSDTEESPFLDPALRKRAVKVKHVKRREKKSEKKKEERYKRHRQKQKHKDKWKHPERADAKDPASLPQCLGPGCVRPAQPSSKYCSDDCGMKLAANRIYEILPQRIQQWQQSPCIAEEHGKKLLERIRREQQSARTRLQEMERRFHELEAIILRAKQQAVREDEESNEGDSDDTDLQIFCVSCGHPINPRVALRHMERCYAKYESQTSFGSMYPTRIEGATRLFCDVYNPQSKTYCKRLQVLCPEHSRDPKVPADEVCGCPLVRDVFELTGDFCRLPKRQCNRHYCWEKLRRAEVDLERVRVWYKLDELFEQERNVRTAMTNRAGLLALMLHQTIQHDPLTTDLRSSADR
UniProt Q14203, whole entry, looked up: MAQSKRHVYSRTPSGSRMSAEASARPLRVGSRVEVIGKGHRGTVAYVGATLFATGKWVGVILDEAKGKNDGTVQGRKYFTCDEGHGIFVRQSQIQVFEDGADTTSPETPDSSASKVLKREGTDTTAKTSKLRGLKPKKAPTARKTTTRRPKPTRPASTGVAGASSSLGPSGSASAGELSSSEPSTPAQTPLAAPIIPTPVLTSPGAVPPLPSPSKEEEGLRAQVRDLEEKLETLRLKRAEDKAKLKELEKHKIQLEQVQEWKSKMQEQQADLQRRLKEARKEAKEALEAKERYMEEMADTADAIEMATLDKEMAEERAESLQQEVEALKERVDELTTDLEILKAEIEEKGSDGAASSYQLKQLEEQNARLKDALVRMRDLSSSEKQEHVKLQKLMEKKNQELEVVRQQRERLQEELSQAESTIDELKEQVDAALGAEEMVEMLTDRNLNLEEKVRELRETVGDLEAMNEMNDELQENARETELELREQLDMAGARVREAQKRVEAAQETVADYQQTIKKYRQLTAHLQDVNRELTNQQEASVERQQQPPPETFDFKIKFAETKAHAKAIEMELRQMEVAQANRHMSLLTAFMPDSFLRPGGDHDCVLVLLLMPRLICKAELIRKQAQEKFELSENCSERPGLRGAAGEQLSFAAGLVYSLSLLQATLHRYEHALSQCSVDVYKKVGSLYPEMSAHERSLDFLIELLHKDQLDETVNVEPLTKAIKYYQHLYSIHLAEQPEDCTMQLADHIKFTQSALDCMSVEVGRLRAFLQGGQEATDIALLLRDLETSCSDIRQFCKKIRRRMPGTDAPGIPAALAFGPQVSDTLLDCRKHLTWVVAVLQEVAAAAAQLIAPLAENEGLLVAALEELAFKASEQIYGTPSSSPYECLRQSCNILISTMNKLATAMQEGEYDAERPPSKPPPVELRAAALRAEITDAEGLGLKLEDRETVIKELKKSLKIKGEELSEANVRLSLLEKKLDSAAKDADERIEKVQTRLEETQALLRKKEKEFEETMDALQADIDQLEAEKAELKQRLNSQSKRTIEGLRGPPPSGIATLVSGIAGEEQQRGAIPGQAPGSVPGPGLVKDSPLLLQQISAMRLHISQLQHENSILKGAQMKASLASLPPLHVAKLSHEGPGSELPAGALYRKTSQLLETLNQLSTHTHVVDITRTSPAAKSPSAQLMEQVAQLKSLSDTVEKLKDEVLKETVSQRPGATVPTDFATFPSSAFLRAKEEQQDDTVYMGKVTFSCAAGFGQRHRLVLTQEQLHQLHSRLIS
UniProt Q6PI48: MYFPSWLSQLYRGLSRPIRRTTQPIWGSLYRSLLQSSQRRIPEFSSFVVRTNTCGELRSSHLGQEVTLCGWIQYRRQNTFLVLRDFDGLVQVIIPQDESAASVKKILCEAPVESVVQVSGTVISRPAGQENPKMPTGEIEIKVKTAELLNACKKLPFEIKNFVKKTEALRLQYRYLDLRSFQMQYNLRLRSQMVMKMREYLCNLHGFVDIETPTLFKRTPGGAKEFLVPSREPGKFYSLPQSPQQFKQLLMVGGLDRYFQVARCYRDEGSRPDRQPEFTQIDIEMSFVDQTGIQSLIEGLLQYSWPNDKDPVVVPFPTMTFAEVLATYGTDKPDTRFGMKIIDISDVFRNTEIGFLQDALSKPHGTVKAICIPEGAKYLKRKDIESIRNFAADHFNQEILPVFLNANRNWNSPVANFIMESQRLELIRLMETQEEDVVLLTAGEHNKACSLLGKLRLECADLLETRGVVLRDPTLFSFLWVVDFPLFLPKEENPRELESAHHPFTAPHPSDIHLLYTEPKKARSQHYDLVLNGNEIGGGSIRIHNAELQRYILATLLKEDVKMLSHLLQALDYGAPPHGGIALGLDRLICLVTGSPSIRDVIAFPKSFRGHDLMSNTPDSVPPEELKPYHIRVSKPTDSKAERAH
UniProt Q93034, whole entry, looked up: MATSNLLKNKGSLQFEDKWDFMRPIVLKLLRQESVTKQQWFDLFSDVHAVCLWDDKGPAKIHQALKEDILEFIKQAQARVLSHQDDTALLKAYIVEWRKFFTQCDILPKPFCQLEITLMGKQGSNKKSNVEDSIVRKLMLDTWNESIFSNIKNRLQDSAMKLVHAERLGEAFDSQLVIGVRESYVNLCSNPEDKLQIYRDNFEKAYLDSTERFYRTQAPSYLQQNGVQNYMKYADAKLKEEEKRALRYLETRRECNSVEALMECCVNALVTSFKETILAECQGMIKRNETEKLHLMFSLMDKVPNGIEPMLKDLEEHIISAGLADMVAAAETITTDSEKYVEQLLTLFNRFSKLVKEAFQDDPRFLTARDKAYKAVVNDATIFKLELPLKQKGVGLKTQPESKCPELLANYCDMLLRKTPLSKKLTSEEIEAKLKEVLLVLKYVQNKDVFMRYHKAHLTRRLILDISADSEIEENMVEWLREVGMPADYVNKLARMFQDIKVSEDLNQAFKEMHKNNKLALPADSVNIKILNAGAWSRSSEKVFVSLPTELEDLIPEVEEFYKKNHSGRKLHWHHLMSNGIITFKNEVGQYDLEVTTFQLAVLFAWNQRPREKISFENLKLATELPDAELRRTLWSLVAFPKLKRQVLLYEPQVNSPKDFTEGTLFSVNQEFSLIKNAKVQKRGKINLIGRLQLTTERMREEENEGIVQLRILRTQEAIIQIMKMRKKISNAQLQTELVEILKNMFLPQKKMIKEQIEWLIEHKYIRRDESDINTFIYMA
UniProt Q69YN2: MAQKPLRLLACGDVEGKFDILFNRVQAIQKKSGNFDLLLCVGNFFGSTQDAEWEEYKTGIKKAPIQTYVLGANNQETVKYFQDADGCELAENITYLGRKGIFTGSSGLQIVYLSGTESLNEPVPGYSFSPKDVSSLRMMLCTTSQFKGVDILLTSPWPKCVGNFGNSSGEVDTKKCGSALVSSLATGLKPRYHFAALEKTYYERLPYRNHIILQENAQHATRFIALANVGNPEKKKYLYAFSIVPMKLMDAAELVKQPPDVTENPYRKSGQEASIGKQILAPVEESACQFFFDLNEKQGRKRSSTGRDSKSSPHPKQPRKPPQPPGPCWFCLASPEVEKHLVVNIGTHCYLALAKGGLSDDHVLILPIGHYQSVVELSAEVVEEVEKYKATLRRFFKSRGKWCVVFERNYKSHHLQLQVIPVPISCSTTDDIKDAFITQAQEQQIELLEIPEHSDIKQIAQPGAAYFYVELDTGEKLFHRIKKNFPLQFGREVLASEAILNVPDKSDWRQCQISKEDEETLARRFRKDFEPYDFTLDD
UniProt Q13619, whole entry, looked up: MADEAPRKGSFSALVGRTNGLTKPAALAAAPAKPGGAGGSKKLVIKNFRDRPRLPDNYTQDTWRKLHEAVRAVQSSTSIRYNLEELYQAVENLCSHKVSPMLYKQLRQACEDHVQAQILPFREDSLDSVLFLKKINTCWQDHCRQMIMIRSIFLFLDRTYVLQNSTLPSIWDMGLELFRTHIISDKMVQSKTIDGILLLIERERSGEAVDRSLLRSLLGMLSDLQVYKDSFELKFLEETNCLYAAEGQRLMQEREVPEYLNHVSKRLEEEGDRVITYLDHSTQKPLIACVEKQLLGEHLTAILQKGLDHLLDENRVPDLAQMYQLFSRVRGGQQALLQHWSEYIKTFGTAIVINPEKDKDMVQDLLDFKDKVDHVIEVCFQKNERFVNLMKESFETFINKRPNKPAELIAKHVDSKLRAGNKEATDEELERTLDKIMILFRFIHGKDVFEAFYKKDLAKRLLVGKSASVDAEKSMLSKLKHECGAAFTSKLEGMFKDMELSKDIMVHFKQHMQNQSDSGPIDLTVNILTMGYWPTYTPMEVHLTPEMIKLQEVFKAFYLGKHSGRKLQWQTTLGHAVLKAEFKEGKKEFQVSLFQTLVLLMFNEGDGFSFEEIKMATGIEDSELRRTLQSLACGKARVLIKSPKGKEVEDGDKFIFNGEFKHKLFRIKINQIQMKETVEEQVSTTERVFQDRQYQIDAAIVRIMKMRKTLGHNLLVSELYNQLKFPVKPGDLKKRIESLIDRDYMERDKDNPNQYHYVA
UniProt Q96SD1, whole entry, looked up: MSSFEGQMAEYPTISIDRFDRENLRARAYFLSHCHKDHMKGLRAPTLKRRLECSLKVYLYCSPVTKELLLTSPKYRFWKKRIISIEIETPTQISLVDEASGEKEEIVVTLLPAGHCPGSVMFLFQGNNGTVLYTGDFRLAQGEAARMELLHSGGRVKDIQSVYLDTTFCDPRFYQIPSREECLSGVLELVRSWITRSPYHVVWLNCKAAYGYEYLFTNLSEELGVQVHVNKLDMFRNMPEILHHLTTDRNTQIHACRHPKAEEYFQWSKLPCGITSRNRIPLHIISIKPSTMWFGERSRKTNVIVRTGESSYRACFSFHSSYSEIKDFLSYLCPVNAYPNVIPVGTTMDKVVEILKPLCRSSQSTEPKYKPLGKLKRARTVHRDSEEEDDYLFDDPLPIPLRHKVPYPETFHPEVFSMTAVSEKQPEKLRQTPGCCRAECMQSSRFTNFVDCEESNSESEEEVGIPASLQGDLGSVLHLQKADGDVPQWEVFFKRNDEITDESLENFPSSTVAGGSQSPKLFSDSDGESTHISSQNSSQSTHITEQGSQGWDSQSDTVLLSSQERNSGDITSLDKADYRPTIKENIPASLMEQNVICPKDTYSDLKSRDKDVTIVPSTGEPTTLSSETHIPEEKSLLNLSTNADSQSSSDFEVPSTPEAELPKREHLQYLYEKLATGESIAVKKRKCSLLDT
UniProt Q9NV06: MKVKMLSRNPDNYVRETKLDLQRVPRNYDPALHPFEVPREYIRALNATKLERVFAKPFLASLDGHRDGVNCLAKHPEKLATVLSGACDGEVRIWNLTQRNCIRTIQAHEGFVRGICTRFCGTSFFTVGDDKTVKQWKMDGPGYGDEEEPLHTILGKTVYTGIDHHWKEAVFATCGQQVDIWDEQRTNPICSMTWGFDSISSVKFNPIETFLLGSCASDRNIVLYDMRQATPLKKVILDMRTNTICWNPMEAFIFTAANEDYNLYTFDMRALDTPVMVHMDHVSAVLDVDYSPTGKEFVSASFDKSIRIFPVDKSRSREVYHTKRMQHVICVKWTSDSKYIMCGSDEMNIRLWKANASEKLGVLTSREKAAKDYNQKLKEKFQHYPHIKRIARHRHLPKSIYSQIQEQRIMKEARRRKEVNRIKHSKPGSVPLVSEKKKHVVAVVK

Some of the results follow.
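Note: competitive profiling in live THP-1 cells: cysteine peptides tagged with an iodoacetamide desthiobiotin (IA-DTB) probe, intensity after compound treatment relative to DMSO-treated cells.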

Turning to “DCTD_P32321_83_LDTKYPYVCHAELNAIMNK (UniProt P32321)”, the “probe-labelled cysteine peptide fold change” value is, setting by setting: (10 µM) -0.129; (50 µM) -0.614.

In the case of “CXorf38_Q8TB03_133+145_QGPEECDAVALLSLINSCDHFVVDRK (UniProt Q8TB03)”, the “probe-labelled cysteine peptide fold change” value was -0.152 (10 µM) and -0.411 (50 µM).

Regarding “CTSG_P08311_142_AQEGLRPGTLCTVAGWGR (UniProt P08311)”, the “probe-labelled cysteine peptide fold change” value reads like this: (10 µM) -0.0347; (50 µM) -0.0423.

For “CUL4B_Q13620_248_YNLEELYQAVENLCSYK (UniProt Q13620)”, the “probe-labelled cysteine peptide fold change” value reads like this: (10 µM) 0.317; (50 µM) 0.245.

Turning to “CTR9_Q6PD62_363_ENASQCFEK (UniProt Q6PD62)”, the “probe-labelled cysteine peptide fold change” value (10 µM) was found to be 0.0943 and the “probe-labelled cysteine peptide fold change” value (50 µM) is 0.277.

On to “DBR1_Q9UK59_371_INPQTTEFCAQLGIIDINVR (UniProt Q9UK59)”, for which the “probe-labelled cysteine peptide fold change” value is -0.286 (10 µM) and -0.0445 (50 µM).

Turning to “CXXC1_Q9P0U4_420_IQQWQQSPCIAEEHGKK (UniProt Q9P0U4)”, the “probe-labelled cysteine peptide fold change” value was -0.0831 (10 µM) and -0.307 (50 µM).

For the target “DCTN1_Q14203_1252_VTFSCAAGFGQR (UniProt Q14203)”, the “probe-labelled cysteine peptide fold change” value (10 µM) was 0.0513 and the “probe-labelled cysteine peptide fold change” value (50 µM) stood at 0.00499.

As to “CXXC1_Q9P0U4_169+172+175_MCGECEACR (UniProt Q9P0U4)”, the “probe-labelled cysteine peptide fold change” value was -0.00812 (10 µM) and -0.677 (50 µM).

For “DARS2_Q6PI48_54_TNTCGELR (UniProt Q6PI48)”, the “probe-labelled cysteine peptide fold change” value worked out at 0.146 (10 µM) and 0.241 (50 µM).

Consider “CUL5_Q93034_51_QQWFDLFSDVHAVCLWDDKGPAK (UniProt Q93034)”, for which the “probe-labelled cysteine peptide fold change” value is -0.119 (10 µM) and -0.574 (50 µM).

“CWF19L1_Q69YN2_426_SHHLQLQVIPVPISCSTTDDIK (UniProt Q69YN2)”: the “probe-labelled cysteine peptide fold change” value runs as follows: (10 µM) -0.0713; (50 µM) 0.248.

For the target “CUL7_Q14999_1405_HSWPVASICHTLNPR (UniProt Q14999)”, the “probe-labelled cysteine peptide fold change” value (10 µM) was -0.0598 and the “probe-labelled cysteine peptide fold change” value (50 µM) was -0.0134.

For the target “DARS2_Q6PI48_202_MREYLCNLHGFVDIETPTLFKR (UniProt Q6PI48)”, the “probe-labelled cysteine peptide fold change” value runs as follows: (10 µM) -0.224; (50 µM) -0.413.

“CXXC1_Q9P0U4_181_TEDCGHCDFCR (UniProt Q9P0U4)”: the “probe-labelled cysteine peptide fold change” value stood at 0.297 (10 µM) and 0.538 (50 µM).

In the case of “CTU2_Q2VPK5_457_REDPQACIEEQLCYSCR (UniProt Q2VPK5)”, the “probe-labelled cysteine peptide fold change” value reads like this: (10 µM) 0.0616; (50 µM) -0.0015.

On to “CUL2_Q13617_282_MVADHLQFLHAECHNIIR (UniProt Q13617)”, for which the “probe-labelled cysteine peptide fold change” value (10 µM) was -0.000918 and the “probe-labelled cysteine peptide fold change” value (50 µM) is -0.0663.

In the case of “CWF19L1_Q69YN2_141_MMLCTTSQFK (UniProt Q69YN2)”, the “probe-labelled cysteine peptide fold change” value was 0.102 (10 µM) and -0.00675 (50 µM).

In the case of “DDA1_Q9BW61_25_FHADSVCK (UniProt Q9BW61)”, the “probe-labelled cysteine peptide fold change” value is, setting by setting: (10 µM) -0.0973; (50 µM) -0.511.

For the target “CTR9_Q6PD62_207_LGMGHCFVK (UniProt Q6PD62)”, the “probe-labelled cysteine peptide fold change” value by setting is: (10 µM) -0.0764; (50 µM) -0.245.

On to “DBNL_Q9UJU6_97_KGACASHVSTMASFLK (UniProt Q9UJU6)”, for which the “probe-labelled cysteine peptide fold change” value (10 µM) amounted to 0.0516 and the “probe-labelled cysteine peptide fold change” value (50 µM) was -0.486.

Take “CUL4A_Q13619_289_PLIACVEK (UniProt Q13619)”: the “probe-labelled cysteine peptide fold change” value was -0.0504 (10 µM) and -0.0116 (50 µM).

As to “DCLRE1C_Q96SD1_61_VYLYCSPVTK (UniProt Q96SD1)”, the “probe-labelled cysteine peptide fold change” value (10 µM) was -0.11 and the “probe-labelled cysteine peptide fold change” value (50 µM) turned out to be 0.165.

For the target “CTSZ_Q9UBR2_92_NQHIPQYCGSCWAHASTSAMADR (UniProt Q9UBR2)”, the “probe-labelled cysteine peptide fold change” value (10 µM) was determined as 0.19 and the “probe-labelled cysteine peptide fold change” value (50 µM) was -0.0928.

For “CYFIP1_Q7L576_519_TVCDWETGHEPFNDPALR (UniProt Q7L576)”, the “probe-labelled cysteine peptide fold change” value is -0.16 (10 µM) and 0.612 (50 µM).

Take “CTSD_P07339_286_AYWQVHLDQVEVASGLTLCK (UniProt P07339)”: the “probe-labelled cysteine peptide fold change” value (10 µM) is 0.0862 and the “probe-labelled cysteine peptide fold change” value (50 µM) is -0.0819.

Turning to “DARS2_Q6PI48_590_LICLVTGSPSIR (UniProt Q6PI48)”, the “probe-labelled cysteine peptide fold change” value reads like this: (10 µM) 0.0443; (50 µM) 0.892.

As for “CTSG_P08311_207_GDSGGPLLCNNVAHGIVSYGK (UniProt P08311)”, the “probe-labelled cysteine peptide fold change” value is -0.207 (10 µM) and -0.197 (50 µM).

As to “CTSB_P07858_105_EIRDQGSCGSCWAFGAVEAISDR (UniProt P07858)”, the “probe-labelled cysteine peptide fold change” value was -0.145 (10 µM) and -0.569 (50 µM).

As for “CTSB_P07858_179_GLVSGGLYESHVGCR (UniProt P07858)”, the “probe-labelled cysteine peptide fold change” value reads like this: (10 µM) 0.0761; (50 µM) -0.0534.

As for “DBN1_Q16643_96_CACASHVAK (UniProt Q16643)”, the “probe-labelled cysteine peptide fold change” value runs as follows: (10 µM) -0.0825; (50 µM) -0.573.

In the case of “DCAF5_Q96JK2_349_FNPHTYMICSSGVEK (UniProt Q96JK2)”, the “probe-labelled cysteine peptide fold change” value is, setting by setting: (10 µM) -0.167; (50 µM) -0.0686.

For “CUL4A_Q13619_241_FLEETNCLYAAEGQR (UniProt Q13619)”, the “probe-labelled cysteine peptide fold change” value runs as follows: (10 µM) -0.104; (50 µM) 0.0615.

On to “CYB5R3_P00387_274_DHLPPPEEEPLVLMCGPPPMIQYACLPNLDHVGHPTER (UniProt P00387)”, for which the “probe-labelled cysteine peptide fold change” value runs as follows: (10 µM) 0.0156; (50 µM) 0.273.

Turning to “DDB1_Q16531_128_IGRPSETGIIGIIDPECR (UniProt Q16531)”, the “probe-labelled cysteine peptide fold change” value runs as follows: (10 µM) 0.108; (50 µM) 0.145.

As for “CUL5_Q93034_281_ETILAECQGMIK (UniProt Q93034)”, the “probe-labelled cysteine peptide fold change” value reads like this: (10 µM) 0.0437; (50 µM) -0.0471.

Take “DCAF13_Q9NV06_342_YIMCGSDEMNIR (UniProt Q9NV06)”: the “probe-labelled cysteine peptide fold change” value runs as follows: (10 µM) -0.0629; (50 µM) 0.0402.

Take “CTSG_P08311_186_RQICVGDR (UniProt P08311)”: the “probe-labelled cysteine peptide fold change” value runs as follows: (10 µM) -0.0544; (50 µM) 0.0512.

Values taken from the supplement of paper PMC12067093, “Discovery and optimisation of a covalent ligand for TRIM25 and its application to targeted protein ubiquitination” (Chemical Science, 2025).
